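Whole-cell assay for inhibitors of Mycobacterium tuberculosis growth, labelled Cornell in the record; the read-out is not stated. The concentration is filed as 10 mM, unlikely as a test dose, so the dose is not known. Higher means stronger inhibition (inferred from two other growth screens of the library). Of about 53,000 compounds tested this way, about 900 (1.7%) reached 50% or more in at least one test.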

The filed quantity is “Percent Effect” (%).
How 0% and 100% were set is not recorded. Most values in the screen are low, and negative values occur.
This is an unselected part of the compounds tested.

- O=C(O)C(F)(F)F.[H][C@]12CCC[C@@]1(COc1ccccn1)CN(C(=O)CS(C)(=O)=O)C2 | -13.44%
- c1ccc2c(c1)cnn2CCCNC1CCOC2(CCOCC2)C1 (configuration not stated) | -90.25%
- COCCN1CCC(NC(=O)C(C)C)CC1 | -17.97%
- COc1cc2nc3n(c(=O)c2cc1OC)CCN(C)CC3 | 1.275%
- Cc1noc(C)c1CN(C)C(=O)c1ccc(NC2CC2)nc1 | 15.82%
- CC(=O)N1CCOCC(Cc2ccc3c(ccn3C)c2)C1 (configuration not stated) | 46.68%
- Cn1cnc2c1C(COCC1CCOCC1)CN(C(=O)c1ccco1)C2.O=C(O)C(F)(F)F (configuration not stated) | 5.298%
- O=C(NCCn1cnc(C2CCCC2)cc1=O)NCc1cccs1 | 35.37%
- [H][C@@]12CCN(C(=O)c3cscn3)C[C@@]1([H])O[C@@H](c1nnc(C3CC3)o1)C2 | -4.853%
- CN1Cc2ccccc2CC2(CCN(C(=O)[C@H]3CCCO3)CC2)C1=O | 5.594%
- COc1cc(C)nc(N2CCN(C(=O)CCc3ccco3)CC2)n1 | 11.8%
- [H][C@@]12CCN(C(=O)Cc3ccsc3)C[C@@]1([H])O[C@H](c1noc(C)n1)C2 | -0.3005%
- O=C(O)C(F)(F)F.O=C(c1ccoc1)N1CCCC2(CCC(=O)N2Cc2ccncc2)C1 (configuration not stated) | 13.4%
- O=C(O)C(F)(F)F.O=C(O)C(F)(F)F.O=C(O)C(F)(F)F.c1cnc(N2CCC3(CCN(Cc4cccnc4)CC3)CC2)nc1 | 17.55%
- CC(=O)N1CCN(Cc2ccc(C(F)(F)F)c(F)c2)CC(O)C1 (configuration not stated) | 0.5758%
- O=C(O)C(F)(F)F.[H][C@@]12CN(CC3CCOCC3)C[C@]1([H])C(=O)N(Cc1cccc(F)c1)C2 | -18.93%
- c1ccc(OCc2noc(CN3CCC(N4CCSCC4)CC3)n2)cc1 | 26.83%
- O=C(c1noc2c1CCCC2)N1CCCC(c2nccs2)C1 (configuration not stated) | 2.343%
- Cc1ccccc1C1(C(=O)NCCN2CCCC2)CCOCC1 | 14.04%
- CCCOc1ccc(CN)c(OC(F)F)c1 | -0.06137%
- CSCC(C)(O)CNc1cccc(F)c1C#N (configuration not stated) | -16.26%
- [H][C@@]12OCCN(S(=O)(=O)C3CC3)[C@@]1([H])CC[C@H]2OCC1CC1 | -23.48%
- CC(C)N(C)Cc1cnc2n1CCN(C(=O)Cc1ccsc1)C2.O=C(O)C(F)(F)F | 2.763%
- O=C(O)C(F)(F)F.[H][C@]12CCC(=O)N(c3cccnc3)[C@@]1([H])CCN2C(=O)c1ccc(C)o1 | 5.16%
- Cc1cc(CN(C)C(=O)C2CCCN(C(=O)c3ccc(Cl)cc3)C2)no1 (configuration not stated) | -23.22%
- [H][C@@]12OCCN(C(=O)c3ccc(F)c(OC)c3)[C@@]1([H])CC[C@H]2OCC1CC1 | 14.36%
- O=S(=O)(Cc1ccccc1)NCCc1nnc2n1CCC2 | 16.7%
- N#Cc1c[nH]nc1NCc1ccc2c(c1)OCO2 | 17.06%
- Cc1cc(C(F)(F)F)nc(CCNC(C)Cn2cncn2)n1 (configuration not stated) | 13.3%
- O=C(NCc1cccs1)NCC1(O)CCc2ccccc2C1 (configuration not stated) | 47.58%
- CCC(NC(=O)c1ccc2[nH]ccc2c1)C(=O)N1CCOCC1 (configuration not stated) | -40.43%
- COc1ccc(-c2nnc(SCC(=O)NCC(C)C)[nH]2)c(OC)c1 | -40.74%
- Fc1ccc2c(c1)nc1n2[C@@H](CNCc2nccs2)COC1 | 8.835%
- CN(CCN1CCOCC1)C(=O)C1(c2ccc(F)cc2F)CCC1 | 6.835%
- Clc1ccc(C2(CNC3=NCCN3)CC2)cc1.I | -15.81%
- COc1cccn(CC(=O)N(C)CCCOc2c(C)cccc2C)c1=O | 16.4%
- CCN(C(=O)c1ccc2nnc(C3CCN(C)C3)n2c1)C(C)C.O=C(O)C(F)(F)F (configuration not stated) | -55.41%
- CC(C)N(C)Cc1cnc2n1CCN(C(=O)c1cccs1)C2 | 19.66%
- CN1CCOC(CNC(=O)CCCOc2ccccc2F)C1 (configuration not stated) | -11.17%
- COCC1CN(C(=O)C2=CCCCC2)Cc2cnn(CC3CC3)c21 (configuration not stated) | 27.4%
- NC(=O)NCC(=O)N1CCC2(CC1)c1ccccc1CC2O (configuration not stated) | 18.66%
- Cn1cccc1-c1cc(C(=O)NCCCc2csc(N)n2)[nH]n1 | -46.61%
- N#Cc1ccccc1C(=O)Nc1cccc(CN2CCC(CO)CC2)c1 | -27%
- CC(C)(NS(C)(=O)=O)C(=O)NCc1cccc(Br)c1 | 23.4%

4 of the entries, repeated:

compound,percent effect
Cc1cc(C(F)(F)F)nc(CCNC(C)Cn2cncn2)n1 (configuration not stated),13.3
O=C(NCCn1cnc(C2CCCC2)cc1=O)NCc1cccs1,35.37
CCN(C(=O)c1ccc2nnc(C3CCN(C)C3)n2c1)C(C)C.O=C(O)C(F)(F)F (configuration not stated),-55.41
O=C(O)C(F)(F)F.O=C(c1ccoc1)N1CCCC2(CCC(=O)N2Cc2ccncc2)C1 (configuration not stated),13.4

From ChEMBL document CHEMBL3988442, “University of Dundee, Small-Polar-MMV Screening Library” (2021).